Laboratory results: patent publication US4272540A, “14-Methoxymorphinan-6-one compounds and therapeutic methods of treating pain and drug dependence with them” (SISA, Incorporated, priority 1979, dated 1981)
Entries after “also recorded” stand apart in the source; their conditions may differ. Structures can show the parent of a compound that is named as a salt. At least one compound was matched to its structure with a doubt left.

Key:
[1] = Overall agonist/antagonist classification from Table I (Tests A and B); format: in vivo, mice (Test A); rats (Test B); conditions: from ED50 and AD50 values of Table I
Procedure: The analgesic effects of test compounds were determined in mice by use of the acetic acid writhing test described by B. J. R. Whittle, Brit. J. Pharmacol., 22:296 (1964). In this test at least three groups of five male CD-1 mice each were given subcutaneous doses of the test drug dissolved in either distilled water or distilled water acidified with HCl depending on the solubility of the compound. In all cases, 0.4 milliliter of a 0.5% V/V acetic acid in distilled water solution was administered intraperitoneally 15 minutes post drug. The number of writhes in a 20 minute interval beginning 5 minutes after the acetic acid injection were determined and compared with the number of writes in control groups which had received only acetic acid. […]
Male albino Wistar rats (100-120 g) were used for this study. […] Groups of five rats were used each time, and two control times were determined at 60 and 30 minutes prior to subcutaneous injection of the drug.
(§1) Thirty minutes after the last control run the test drug was given interperitoneally. […] The data were calculated as follows: [formula]
The data were plotted on log-probit paper and AD50 values, i.e., the dose required to inhibit the morphine effect by 50% within 95% condidence limits, were determined by the method of Litchfield and Wilcoxon.

rats = assay: Test B: narcotic antagonist activity (modified rat tail flick test, morphine antagonism); format: in vivo, male albino Wistar rats; conditions: tail flick vs morphine
Procedure: (B) Narcotic antagonist activity in rats (modified rat tail flick test).
The narcotic antagonist effects of test compounds were determined by a modification of the rat tail flick procedure of Harris and Pierson (J. Pharmacol. Exp. Ther. 143:141[1964]).
Male albino Wistar rats (100-120 g) were used for this study. A rat's tail is so placed so as to cover a photocell. Heat is applied by a lamp in a reflector with a timer being connected to the lamp and photocell so that the timer goes on when the light is turned on and is turned off when the photocell is uncovered. A rheostat, incorporated into a heating lamp is used to adjust the intensity of the light falling on the tail of the rat such that the rat's control reaction time is from two to four seconds. Animals with a control reaction time outside this range are rejected. […] Groups of five rats were used each time, and two control times were determined at 60 and 30 minutes prior to subcutaneous injection of the drug.
as §1
The data were plotted on log-probit paper and AD50 values, i.e., the dose required to inhibit the morphine effect by 50% within 95% condidence limits, were determined by the method of Litchfield and Wilcoxon. […]

Row | Compound | agonist/antagonist profile [1] | narcotic antagonist activity (in words) (rats)
1 | CO[C@@]12[C@H](C)CC(=O)C[C@@]13CCN(CC1CCC1)[C@@H]2Cc1ccc(O)cc13 [TR-5249, 17-Cyclobutylmethyl-3-hydroxy-14-methoxy-8α-methylmorphinan-6-one] | mixed analgesic (agonist) and narcotic antagonist activity; also recorded: active both as an analgesic and a narcotic antagonist | 
2 | CO[C@@]12[C@@H](C)CC(O)C[C@@]13CCN(CC1CC1)[C@@H]2Cc1ccc(O)cc13 (stereo partly drawn) [TR-5250, 17-Cyclopropylmethyl-14-methoxy-8β-methylmorphinan-3,6-diol Hydrochloride] | pure narcotic antagonists | some activity as a narcotic antagonist
